From publication PMC7546217
No constants are given. Whether binding was seen depends on the method and setting. In cells and extracts the contact can be indirect. Some results given as binding are weak or reduced against the parent protein; the word gives no strength.

Protein sequences, listed by entry. Tags and fused reporters are not part of them.
UniProt P21333: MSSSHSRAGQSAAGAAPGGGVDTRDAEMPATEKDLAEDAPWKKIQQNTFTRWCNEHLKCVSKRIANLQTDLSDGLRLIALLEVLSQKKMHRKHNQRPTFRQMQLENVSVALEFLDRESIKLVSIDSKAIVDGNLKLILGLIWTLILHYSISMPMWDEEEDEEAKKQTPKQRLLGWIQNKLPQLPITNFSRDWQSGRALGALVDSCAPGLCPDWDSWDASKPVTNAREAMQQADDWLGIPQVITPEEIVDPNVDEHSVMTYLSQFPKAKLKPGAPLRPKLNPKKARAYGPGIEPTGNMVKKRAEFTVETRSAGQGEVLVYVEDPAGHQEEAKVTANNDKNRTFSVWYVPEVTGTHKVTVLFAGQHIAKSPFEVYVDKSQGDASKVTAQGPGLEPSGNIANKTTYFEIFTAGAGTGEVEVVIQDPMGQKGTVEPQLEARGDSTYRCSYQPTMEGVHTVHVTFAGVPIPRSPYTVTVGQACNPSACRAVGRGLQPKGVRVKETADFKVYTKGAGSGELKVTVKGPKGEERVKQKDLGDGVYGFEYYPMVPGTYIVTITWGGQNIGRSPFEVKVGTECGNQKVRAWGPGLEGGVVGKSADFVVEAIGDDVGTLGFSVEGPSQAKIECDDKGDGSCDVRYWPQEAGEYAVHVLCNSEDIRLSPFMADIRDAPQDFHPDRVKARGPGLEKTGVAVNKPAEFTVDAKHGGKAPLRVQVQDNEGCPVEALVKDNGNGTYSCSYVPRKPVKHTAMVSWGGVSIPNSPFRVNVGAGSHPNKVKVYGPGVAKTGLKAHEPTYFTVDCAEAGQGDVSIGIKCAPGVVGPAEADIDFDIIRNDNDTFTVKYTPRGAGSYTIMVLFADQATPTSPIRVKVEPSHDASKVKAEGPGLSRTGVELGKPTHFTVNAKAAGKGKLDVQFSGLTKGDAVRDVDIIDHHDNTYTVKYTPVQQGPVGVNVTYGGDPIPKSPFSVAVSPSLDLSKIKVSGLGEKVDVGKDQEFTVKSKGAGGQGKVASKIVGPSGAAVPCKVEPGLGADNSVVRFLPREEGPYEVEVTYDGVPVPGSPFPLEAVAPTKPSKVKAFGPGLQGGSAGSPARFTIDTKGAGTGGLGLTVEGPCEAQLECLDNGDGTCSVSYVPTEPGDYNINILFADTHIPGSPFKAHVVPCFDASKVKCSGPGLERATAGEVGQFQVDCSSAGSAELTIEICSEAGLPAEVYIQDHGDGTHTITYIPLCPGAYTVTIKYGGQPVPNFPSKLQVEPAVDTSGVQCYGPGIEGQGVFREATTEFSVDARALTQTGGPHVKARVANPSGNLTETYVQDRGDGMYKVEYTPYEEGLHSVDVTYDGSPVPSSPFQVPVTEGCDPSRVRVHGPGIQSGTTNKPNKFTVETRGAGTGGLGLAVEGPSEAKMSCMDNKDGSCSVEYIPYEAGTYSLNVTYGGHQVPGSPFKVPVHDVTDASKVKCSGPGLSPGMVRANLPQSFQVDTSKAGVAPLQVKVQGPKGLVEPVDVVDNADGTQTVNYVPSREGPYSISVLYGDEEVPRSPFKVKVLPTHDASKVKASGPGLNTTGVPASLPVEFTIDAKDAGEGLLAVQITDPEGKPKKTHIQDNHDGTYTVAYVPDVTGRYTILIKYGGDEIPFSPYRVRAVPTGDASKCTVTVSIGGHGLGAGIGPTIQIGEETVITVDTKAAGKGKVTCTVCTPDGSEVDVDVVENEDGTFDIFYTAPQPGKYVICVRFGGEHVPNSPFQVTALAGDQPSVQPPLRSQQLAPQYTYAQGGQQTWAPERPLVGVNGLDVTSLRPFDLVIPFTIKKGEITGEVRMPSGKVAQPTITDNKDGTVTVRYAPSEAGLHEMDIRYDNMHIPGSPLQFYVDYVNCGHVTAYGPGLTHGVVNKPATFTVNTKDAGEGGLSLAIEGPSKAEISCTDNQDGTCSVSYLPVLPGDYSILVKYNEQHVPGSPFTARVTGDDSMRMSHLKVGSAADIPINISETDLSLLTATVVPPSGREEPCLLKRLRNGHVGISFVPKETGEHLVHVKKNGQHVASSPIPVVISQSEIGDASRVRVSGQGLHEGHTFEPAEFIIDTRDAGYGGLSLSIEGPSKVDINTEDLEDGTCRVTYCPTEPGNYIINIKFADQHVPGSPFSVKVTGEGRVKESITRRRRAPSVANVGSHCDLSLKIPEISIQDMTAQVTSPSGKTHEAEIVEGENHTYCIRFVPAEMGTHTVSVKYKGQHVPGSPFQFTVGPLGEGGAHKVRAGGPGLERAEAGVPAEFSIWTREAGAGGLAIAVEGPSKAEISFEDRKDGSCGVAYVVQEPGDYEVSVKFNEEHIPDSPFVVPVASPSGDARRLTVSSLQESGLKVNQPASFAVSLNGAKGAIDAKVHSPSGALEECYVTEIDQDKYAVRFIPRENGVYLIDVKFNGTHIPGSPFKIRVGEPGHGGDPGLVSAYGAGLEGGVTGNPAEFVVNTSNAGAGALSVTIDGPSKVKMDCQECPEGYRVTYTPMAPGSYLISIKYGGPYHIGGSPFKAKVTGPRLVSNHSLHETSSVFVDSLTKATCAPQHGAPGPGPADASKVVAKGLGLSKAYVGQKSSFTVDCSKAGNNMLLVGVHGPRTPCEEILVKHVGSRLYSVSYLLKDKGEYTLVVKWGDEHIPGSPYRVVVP
UniProt P03466: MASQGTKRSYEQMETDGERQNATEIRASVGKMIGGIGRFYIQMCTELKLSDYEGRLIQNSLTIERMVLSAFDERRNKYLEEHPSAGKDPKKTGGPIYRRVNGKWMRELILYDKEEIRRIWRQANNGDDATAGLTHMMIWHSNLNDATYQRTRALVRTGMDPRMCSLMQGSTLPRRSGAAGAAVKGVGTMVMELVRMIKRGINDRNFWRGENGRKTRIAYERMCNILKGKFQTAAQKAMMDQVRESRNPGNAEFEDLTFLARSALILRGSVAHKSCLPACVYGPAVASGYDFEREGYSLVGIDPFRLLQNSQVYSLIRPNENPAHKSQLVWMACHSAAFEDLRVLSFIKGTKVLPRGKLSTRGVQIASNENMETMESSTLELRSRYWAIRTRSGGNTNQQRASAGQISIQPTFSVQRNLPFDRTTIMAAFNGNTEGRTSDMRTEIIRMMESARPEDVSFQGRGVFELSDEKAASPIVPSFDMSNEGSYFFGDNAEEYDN

How the values were obtained:
[1] = molecular target: Filamin A (FLNA), endogenous in A549 cells (human (endogenous in A549)) (UniProt P21333); experiment: co-IP
[2] = molecular target: Influenza A virus nucleoprotein (NP) of A/Puerto Rico/8/34 (H1N1), made by the virus in infected cells (Influenza A virus A/Puerto Rico/8/34 (H1N1)) (UniProt P03466); experiment: co-IP

Row | Substance | binding [1] | binding [2]
1 | Influenza A virus nucleoprotein (NP) of A/Puerto Rico/8/34 (H1N1), made by the virus in infected cells (from UniProt P03466 1-498) | binds | –
2 | Filamin A (FLNA), endogenous in A549 cells (from UniProt P21333 1-2647) | – | binds
